Data as given in PubChem BioAssay AID743121 (NCATS, 2013).
The whole screen tested about 26,000 reagents; this is a part drawn at random. Over the whole deposit, 167 (0.63%) are marked active. 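Calls are per gene from RSA p-values that are not deposited; an individual active-marked siRNA can sensitise only weakly.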 Entries without a mark were called inactive. The numbers tell different reagents against one gene apart. No sequences are given here.

- Purpose: 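Genes whose silencing strengthens cell killing by camptothecin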 (primary screen)
- System: MDA-MB-231 cells, a human breast cancer line
- Reagents: single siRNA against human genes, 20 nM siRNA (0.8 pmol per well)
- Time to read-out: 120 h (drug added 48 h after transfection, read 72 h later)
- Challenge: camptothecin 20 nM (about EC30) for 72 h; vehicle 0.1% DMSO in parallel plates
- Read-out: 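CellTiter-Glo ATP signal, scaled to control siRNA as percent viability; sensitisation given as log2 of untreated divided by camptothecin-treated viability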
- Reading the numbers: log2 vehicle/camptothecin viability: higher = stronger sensitisation to camptothecin; viability with camptothecin and viability without drug: higher = more viable cells
- Active means: 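Active genes have an RSA gene-level p-value below 0.001, computed from the ratios of their separate siRNAs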

gene	reagent no.	log2 vehicle/camptothecin viability	viability with camptothecin (% of control)	viability without drug (% of control)
FOLR3	1	-0.192	100	87.6
FOLR3	2	0.412	71.3	94.8
FOLR3	3	-0.445	47	34.5
FOLR3	4	-0.157	29.7	26.6
EGLN3	1	-0.466	89.7	64.9
EGLN3	2	-0.00189	65.9	65.8
EGLN3	3	-0.271	106	87.8
EGLN3	4	-0.169	137	122
CDC42	1	0.396	47.8	62.9
CDC42	2	-0.227	75.2	64.3
CDC42	3	-0.534	74.7	51.6
CDC42	4	0.119	91.8	99.7
CDC42	5	-0.03	93.4	91.4
CDC42	6	-0.26	53.3	44.5
CDC42	7	0.195	45	51.5
CDC42	8	0.12	65.3	71
PLA2G2E	1	0.378	30.1	39.1
PLA2G2E	2	-0.0519	113	109
PLA2G2E	3	-0.276	102	84.4
PLA2G2E	4	0.461	70	96.3
TRPC3	1	0.105	64.6	69.5
TRPC3	2	-0.484	80.5	57.5
TRPC3	3	0.00357	67.4	67.6
MANF	1	-0.259	85.5	71.4
MANF	2	0.363	29.6	38
MANF	3	0.423	60	80.5
MANF	4	-0.111	108	100
PRSS33	1	-0.113	71.8	66.4
PRSS33	2	-0.0756	79.1	75.1
PRSS33	3	-0.354	94.7	74.1
PRSS33	4	0.0891	84	89.4
TRIM14	1	-0.103	69.2	64.4
TRIM14	2	-0.399	85.3	64.7
TRIM14	3	-0.12	111	102
TRIM14	4	-0.173	114	101

The list goes on (2 carried over from the part before).
gene	reagent no.	log2 vehicle/camptothecin viability	viability with camptothecin (% of control)	viability without drug (% of control)
TRIM14	3	-0.12	111	102
TRIM14	4	-0.173	114	101
OR2A4	1	-0.151	102	91.7
OR2A4	2	-0.553	59.7	40.7
OR2A4	3	0.109	53.1	57.3
OR2A4	4	-0.271	93.1	77.2
TPD52L3	1	-0.474	97.6	70.2
TPD52L3	2	-0.349	93.5	73.4
TPD52L3	3	-0.526	93.5	64.9
TPD52L3	4	-0.387	61	46.7
TPD52L3	5	-0.304	75.4	61.1
TPD52L3	6	-0.845	92	51.2
TPD52L3	7	0.0547	50.1	52
TPD52L3	8	-0.453	77.1	56.3
RNF135	1	-0.381	71.2	54.7
RNF135	2	-0.286	69.1	56.7
RNF135	3	-0.105	80.5	74.8
ILDR1	1	-0.507	86.3	60.7
ILDR1	2	-0.335	77.8	61.7
ILDR1	3	0.0494	46.4	48
ILDR1	4	-0.27	102	84.7
FLRT3	1	-0.387	133	101
FLRT3	2	-0.335	95.8	75.9
FLRT3	3	-0.286	88.8	72.9
FLRT3	4	-0.491	111	78.6
STX7	1	-0.0761	117	111
STX7	2	-0.113	97.6	90.3
STX7	3	-0.206	22	19.1
STX7	4	-0.441	43.8	32.3
TIAL1	1	-0.398	118	89.7
TIAL1	2	-0.437	59.6	44
TIAL1	3	-0.282	66.8	54.9
TIAL1	4	-0.296	96.2	78.3
OPRL1	1	-0.111	34.7	32.1
OPRL1	2	-0.597	97.6	64.5
OPRL1	3	-0.289	52.1	42.6
OPRL1	4	-0.397	68.2	51.8
